Laboratory results from publication doi:10.1101/2022.10.08.511390.
No constants are given. Whether binding was seen depends on the method and setting. For some assays here: Binding seen in cells or lysates may run through a third protein. Some entries that bind do so weakly or less than the wild type. Each block holds one binder with its values, some of them ahead of it.

How the values were obtained:
[1] = molecular target: T1, 2-oxoglutarate dehydrogenase complex subunit E2o (DLST), bovine (bovine (endogenous in bovine heart mitochondria)) (UniProt P11179); assay: native gel or EMSA
T1 sequence: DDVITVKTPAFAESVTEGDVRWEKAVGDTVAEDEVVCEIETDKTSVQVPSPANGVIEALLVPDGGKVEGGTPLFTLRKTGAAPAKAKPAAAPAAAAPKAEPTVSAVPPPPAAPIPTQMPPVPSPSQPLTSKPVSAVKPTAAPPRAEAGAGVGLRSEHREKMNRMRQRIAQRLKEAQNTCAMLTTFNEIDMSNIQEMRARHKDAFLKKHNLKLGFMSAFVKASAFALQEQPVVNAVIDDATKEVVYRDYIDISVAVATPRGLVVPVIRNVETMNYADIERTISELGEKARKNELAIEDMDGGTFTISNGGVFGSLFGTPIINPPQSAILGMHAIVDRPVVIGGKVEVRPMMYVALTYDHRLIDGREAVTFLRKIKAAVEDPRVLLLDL

[2] = molecular target: T1, 2-oxoglutarate dehydrogenase complex subunit E2o (DLST), bovine (bovine (endogenous in bovine heart mitochondria)); assay: cross-linking
[3] = molecular target: T1, 2-oxoglutarate dehydrogenase complex subunit E2o (DLST), bovine (bovine (endogenous in bovine heart mitochondria)); assay: native gel or EMSA; remark: listed apart in the source
[4] = molecular target: T2, 2-oxoglutarate dehydrogenase complex subunit E2o (DLST), mouse (mouse (endogenous in mouse heart mitochondria)) (UniProt Q9D2G2); assay: cross-linking
T2 sequence: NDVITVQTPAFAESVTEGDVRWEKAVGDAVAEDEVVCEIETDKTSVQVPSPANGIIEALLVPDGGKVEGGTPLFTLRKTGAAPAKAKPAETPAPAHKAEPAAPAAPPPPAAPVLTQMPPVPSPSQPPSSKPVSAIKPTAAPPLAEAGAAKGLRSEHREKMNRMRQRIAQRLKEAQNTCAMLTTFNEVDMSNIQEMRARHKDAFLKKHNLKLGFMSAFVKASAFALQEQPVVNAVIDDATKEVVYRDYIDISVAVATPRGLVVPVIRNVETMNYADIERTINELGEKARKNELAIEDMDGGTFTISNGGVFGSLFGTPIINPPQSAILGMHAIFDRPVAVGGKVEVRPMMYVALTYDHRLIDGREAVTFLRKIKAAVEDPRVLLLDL

[5] = molecular target: T3, 2-oxoglutarate dehydrogenase complex subunit E3 (DLD), mouse (mouse (endogenous in mouse heart mitochondria)) (UniProt O08749); assay: cross-linking
T3 sequence: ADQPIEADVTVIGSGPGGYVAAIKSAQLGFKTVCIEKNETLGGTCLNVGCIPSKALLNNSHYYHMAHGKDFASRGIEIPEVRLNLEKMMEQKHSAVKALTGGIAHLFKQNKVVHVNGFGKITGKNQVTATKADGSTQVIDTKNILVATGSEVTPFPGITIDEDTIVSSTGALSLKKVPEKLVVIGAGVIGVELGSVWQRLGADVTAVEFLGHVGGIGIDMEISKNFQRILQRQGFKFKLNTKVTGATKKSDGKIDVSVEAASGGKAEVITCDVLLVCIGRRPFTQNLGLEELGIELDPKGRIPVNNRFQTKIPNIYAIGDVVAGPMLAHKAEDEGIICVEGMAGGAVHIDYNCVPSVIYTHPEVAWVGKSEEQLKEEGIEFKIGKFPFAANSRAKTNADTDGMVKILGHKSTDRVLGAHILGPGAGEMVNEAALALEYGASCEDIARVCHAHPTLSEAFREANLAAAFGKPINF

[6] = molecular target: T4, 2-oxoglutarate dehydrogenase complex subunit E3 (DLD), bovine (bovine (endogenous in bovine heart mitochondria)) (UniProt F1N206); assay: cross-linking
T4 sequence: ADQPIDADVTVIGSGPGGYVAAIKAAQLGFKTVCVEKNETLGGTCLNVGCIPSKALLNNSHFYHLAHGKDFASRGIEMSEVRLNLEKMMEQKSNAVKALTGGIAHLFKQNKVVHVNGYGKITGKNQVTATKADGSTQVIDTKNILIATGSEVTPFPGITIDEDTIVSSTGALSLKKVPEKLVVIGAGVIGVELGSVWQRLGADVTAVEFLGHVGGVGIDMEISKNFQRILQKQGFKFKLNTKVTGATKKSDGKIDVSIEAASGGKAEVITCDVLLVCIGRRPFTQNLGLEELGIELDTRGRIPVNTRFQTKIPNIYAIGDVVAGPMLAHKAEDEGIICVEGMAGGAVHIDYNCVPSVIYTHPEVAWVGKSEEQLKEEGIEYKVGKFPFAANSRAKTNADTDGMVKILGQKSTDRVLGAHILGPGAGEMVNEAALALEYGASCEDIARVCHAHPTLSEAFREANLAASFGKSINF

[7] = molecular target: T1, 2-oxoglutarate dehydrogenase complex subunit E2o (DLST), bovine (bovine (endogenous in bovine heart mitochondria)); assay: native gel or EMSA; remark: listed apart in the source
[8] = molecular target: T4, 2-oxoglutarate dehydrogenase complex subunit E3 (DLD), bovine (bovine (endogenous in bovine heart mitochondria)); assay: native gel or EMSA

B1: 2-oxoglutarate dehydrogenase complex subunit E3 (DLD), bovine (enzyme, UniProt F1N206 36-509)
chain: T4 sequence
- binding [1]: binds weakly
- binding [2]: binds
- binding [3]: binds

B4: 2-oxoglutarate dehydrogenase complex subunit E1o (OGDH), mouse (enzyme, UniProt Q60597 41-1023)
chain: SAPVAAEPFLSGTSSNYVEEMYCAWLENPKSVHKSWDIFFRNTNAGAPPGTAYQSPLSLSRSSLATMAHAQSLVEAQPNVDKLVEDHLAVQSLIRAYQIRGHHVAQLDPLGILDADLDSSVPADIISSTDKLGFYGLHESDLDKVFHLPTTTFIGGQEPALPLREIIRRLEMAYCQHIGVEFMFINDLEQCQWIRQKFETPGIMQFTNEEKRTLLARLVRSTRFEEFLQRKWSSEKRFGLEGCEVLIPALKTIIDMSSANGVDYVIMGMPHRGRLNVLANVIRKELEQIFCQFDSKLEAADEGSGDMKYHLGMYHRRINRVTDRNITLSLVANPSHLEAADPVVMGKTKAEQFYCGDTEGKKVMSILLHGDAAFAGQGIVYETFHLSDLPSYTTHGTVHVVVNNQIGFTTDPRMARSSPYPTDVARVVNAPIFHVNSDDPEAVMYVCKVAAEWRNTFHKDVVVDLVCYRRNGHNEMDEPMFTQPLMYKQIRKQKPVLQKYAELLVSQGVVNQPEYEEEISKYDKICEEAFTRSKDEKILHIKHWLDSPWPGFFTLDGQPRSMTCPSTGLEEDVLFHIGKVASSVPVENFTIHGGLSRILKTRRELVTNRTVDWALAEYMAFGSLLKEGIHVRLSGQDVERGTFSHRHHVLHDQNVDKRTCIPMNHLWPNQAPYTVCNSSLSEYGVLGFELGFAMASPNALVLWEAQFGDFNNMAQCIIDQFICPGQAKWVRQNGIVLLLPHGMEGMGPEHSSARPERFLQMCNDDPDVLPDLQEENFDINQLYDCNWIVVNCSTPGNFFHVLRRQILLPFRKPLIVFTPKSLLRHPEARTSFDEMLPGTHFQRVIPENGPAAQDPHKVKRLLFCTGKVYYDLTRERKARNMEEEVAITRIEQLSPFPFDLLLKEAQKYPNAELAWCQEEHKNQGYYDYVKPRLRTTIDRAKPVWYAGRDPAAAPATGNKKTHLTELQRFLDTAFDLDAFKKFS
- binding [4]: binds
- binding [5]: binds weakly

B5: 2-oxoglutarate dehydrogenase complex subunit E1o (OGDH), bovine (enzyme, UniProt Q148N0 41-1023)
chain: TAPVAAEPFLSGTSSNYVEEMYYAWLENPKSVHKSWDIFFRNTNAGAPPGTAYQSPLPLSPGSLSAVARAGPLVEAQPNVDKLVEDHLAVQSLIRAYQIRGHHVAQLDPLGILDADLDSSVPADIISSTDKLGFYGLDESDLDKVFHLPTTTFIGGQESALPLREIIRRLEMAYCQHIGVEFMFINDLEQCQWIRQKFETPGVMQFTNEEKRTLLARLVRSTRFEEFLQRKWSSEKRFGLEGCEVLIPALKTIIDKSSENGVDYVIMGMPHRGRLNVLANVIRKELEQIFCQFDSKLEAADEGSGDVKYHLGMYHRRINRVTDRNITLSLVANPSHLEAADPVVMGKTKAEQFYCGDTEGKKVMSILLHGDAAFAGQGIVYETFHLSDLPSYTTHGTVHVVVNNQIGFTTDPRMARSSPYPTDVARVVNAPIFHVNSDDPEAVMYVCKVAAEWRSTFHKDVVVDLVCYRRNGHNEMDEPMFTQPLMYKQIRKQKPVLQKYAELLVSQGVVNQPEYEEEISKYDKICEEAFARSKDEKILHIKHWLDSPWPGFFTLDGQPRSMTCPSTGLTEDILTHIGNVASSVPVEDFTIHGGLSRILKTRGELVKNRTVDWALAEYMAFGSLLKEGIHIRLSGQDVERGTFSHRHHVLHDQNVDKRTCIPMNHLWPNQAPYTVCNSSLSEYGVLGFELGFAMASPNALVLWEAQFGDFHNTAQCIIDQFICPGQAKWVRQNGIVLLLPHGMEGMGPEHSSARPERFLQMCNDDPDVLPDLKEANFDINQLYDCNWVVVNCSTPGNFFHVLRRQILLPFRKPLIIFTPKSLLRHPEARSNFDEMLPGTHFQRVIPEDGPAAQNPGNVKRLLFCTGKVYYDLTRERKARDMVEQVAITRIEQLSPFPFDLLLQEVQKYPSAELAWCQEEHKNQGYYDYVKPRLRTTISRAKPVWYAGRDPAAAPATGNKKTHLTELQRLLDTAFDLDAFKNFS
- binding [6]: no binding
- binding [2]: binds
- binding [7]: binds
- binding [3]: binds

Continued, values first:

- binding [4]: binds
B2: 2-oxoglutarate dehydrogenase complex subunit E3 (DLD), mouse (enzyme, UniProt O08749 36-509)
chain: T3 sequence

- binding [4]: binds
- binding [5]: binds
B3: MRPS36 (KGD4), mouse (protein, UniProt Q9CQX8 1-102)
chain: MGSKMASATRVVQVVKPHAPLIKFPNRRDKPKLSASEALGSAALPSHSSAISQHSKGSTSPDLLMHQGPPDTAEIIKSLPQKYRRKPMSQEEMEFIQRGGPE

- binding [6]: binds
- binding [2]: binds
- binding [7]: binds
- binding [8]: binds
- binding [3]: binds
B6: MRPS36 (KGD4), bovine (protein, UniProt P82908 1-103)
chain: MMGSKMASASRVVQVVKPHTPLIRFPDRRDNPKPNVSEVLRSAGLPSHTSSISQHSKGSKSPDWLMHQGPPDTAEMIKTLPQKYRRKLVSQEEIEFIQRGGPE
